{"source": "PubChem BioAssay AID493246 (Drosophila RNAi Screening Center, 2011)", "aim": "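Genome-wide search for dsRNAs that reduce cell number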 (primary screen)", "cells": "Drosophila Kc and S2R+ cells", "knock-down reagent": "long dsRNA against Drosophila genes", "detection": "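Raw, unnormalised count of remaining cells in each well; per-plate z-scores of cell number underlie the calls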", "reading the numbers": "Kc cell number and S2R+ cell number: higher = more cells remaining", "rule for the call": "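Active when the per-plate z-score of cell number is 3 or more in the direction of fewer cells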", "note": "The screen tested about 21,000 reagents; this is an unselected part of those with a known target gene and a result. Over the whole deposit, 429 (2%) are marked active. 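Values are raw and not normalised between plates; calls rest on per-plate z-scores that were not deposited.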 The numbers tell different reagents against one gene apart. Not stated in the record: the amount of reagent, the time to read-out."}
The opening 2 records, ahead of the listing:
{"target gene": "Arfrp1", "reagent no.": 1, "Kc cell number, rep 1": 6.05e5, "S2R+ cell number, rep 1": 8.37e5, "call": "inactive"}
{"target gene": "CG7800", "reagent no.": 1, "Kc cell number, rep 1": 1.60e6, "Kc cell number, rep 2": 1.76e6, "S2R+ cell number, rep 1": 1.32e6, "S2R+ cell number, rep 2": 1.43e6, "call": "inactive"}

Main list, from the start:
{"target gene": "Arfrp1", "reagent no.": 1, "Kc cell number, rep 1": 6.05e5, "S2R+ cell number, rep 1": 8.37e5, "call": "inactive"}
{"target gene": "CG7800", "reagent no.": 1, "Kc cell number, rep 1": 1.60e6, "Kc cell number, rep 2": 1.76e6, "S2R+ cell number, rep 1": 1.32e6, "S2R+ cell number, rep 2": 1.43e6, "call": "inactive"}
{"target gene": "Vamp7", "reagent no.": 1, "Kc cell number, rep 1": 1.83e6, "Kc cell number, rep 2": 1.76e6, "S2R+ cell number, rep 1": 1.36e6, "S2R+ cell number, rep 2": 1.61e6, "call": "inactive"}
{"target gene": "Sgp", "reagent no.": 1, "Kc cell number, rep 1": 1.26e6, "Kc cell number, rep 2": 1.27e6, "S2R+ cell number, rep 1": 9.65e5, "S2R+ cell number, rep 2": 9.47e5, "call": "inactive"}
{"target gene": "Phae2", "reagent no.": 1, "Kc cell number, rep 1": 1.59e6, "Kc cell number, rep 2": 1.84e6, "S2R+ cell number, rep 1": 1.21e6, "S2R+ cell number, rep 2": 1.30e6, "call": "inactive"}
{"target gene": "brun", "reagent no.": 1, "Kc cell number, rep 1": 1.18e6, "Kc cell number, rep 2": 1.44e6, "S2R+ cell number, rep 1": 1.24e6, "S2R+ cell number, rep 2": 1.17e6, "call": "inactive"}
{"target gene": "PPO2", "reagent no.": 1, "Kc cell number, rep 1": 1.31e6, "Kc cell number, rep 2": 1.35e6, "S2R+ cell number, rep 1": 1.12e6, "S2R+ cell number, rep 2": 1.18e6, "call": "inactive"}
{"target gene": "Rab32", "reagent no.": 1, "Kc cell number, rep 1": 1.45e6, "Kc cell number, rep 2": 1.53e6, "S2R+ cell number, rep 1": 9.45e5, "S2R+ cell number, rep 2": 1.02e6, "call": "inactive"}
{"target gene": "Rab32", "reagent no.": 2, "Kc cell number, rep 1": 1.21e6, "Kc cell number, rep 2": 1.25e6, "S2R+ cell number, rep 1": 9.98e5, "S2R+ cell number, rep 2": 1.05e6, "call": "inactive"}
{"target gene": "CG3703", "reagent no.": 1, "Kc cell number, rep 1": 1.56e6, "Kc cell number, rep 2": 1.58e6, "S2R+ cell number, rep 1": 1.10e6, "S2R+ cell number, rep 2": 1.15e6, "call": "inactive"}
{"target gene": "CG3703", "reagent no.": 2, "Kc cell number, rep 1": 1.51e6, "Kc cell number, rep 2": 1.53e6, "S2R+ cell number, rep 1": 1.04e6, "S2R+ cell number, rep 2": 1.14e6, "call": "inactive"}
{"target gene": "CG3703", "reagent no.": 3, "Kc cell number, rep 1": 1.41e6, "Kc cell number, rep 2": 1.43e6, "S2R+ cell number, rep 1": 1.02e6, "S2R+ cell number, rep 2": 1.11e6, "call": "inactive"}
{"target gene": "CG12541", "reagent no.": 1, "Kc cell number, rep 1": 1.35e6, "Kc cell number, rep 2": 1.51e6, "S2R+ cell number, rep 1": 1.13e6, "S2R+ cell number, rep 2": 1.22e6, "call": "inactive"}
{"target gene": "CG12541", "reagent no.": 2, "Kc cell number, rep 1": 1.69e6, "Kc cell number, rep 2": 1.58e6, "S2R+ cell number, rep 1": 1.07e6, "S2R+ cell number, rep 2": 1.22e6, "call": "inactive"}
{"target gene": "CG7443", "reagent no.": 1, "Kc cell number, rep 1": 1.56e6, "Kc cell number, rep 2": 1.76e6, "S2R+ cell number, rep 1": 1.29e6, "S2R+ cell number, rep 2": 1.34e6, "call": "inactive"}
{"target gene": "peb", "reagent no.": 1, "Kc cell number, rep 1": 1.45e6, "Kc cell number, rep 2": 1.46e6, "S2R+ cell number, rep 1": 1.05e6, "S2R+ cell number, rep 2": 1.13e6, "call": "inactive"}
{"target gene": "CG3842", "reagent no.": 1, "Kc cell number, rep 1": 1.63e6, "Kc cell number, rep 2": 1.43e6, "S2R+ cell number, rep 1": 1.03e6, "S2R+ cell number, rep 2": 1.08e6, "call": "inactive"}
{"target gene": "IleRS", "reagent no.": 1, "Kc cell number, rep 1": 1.72e6, "Kc cell number, rep 2": 1.74e6, "S2R+ cell number, rep 1": 1.23e6, "S2R+ cell number, rep 2": 1.32e6, "call": "inactive"}
{"target gene": "Alg9", "reagent no.": 1, "Kc cell number, rep 1": 1.46e6, "Kc cell number, rep 2": 1.53e6, "S2R+ cell number, rep 1": 1.33e6, "S2R+ cell number, rep 2": 1.46e6, "call": "inactive"}
{"target gene": "lectin-21Ca", "reagent no.": 1, "Kc cell number, rep 1": 1.47e6, "Kc cell number, rep 2": 1.49e6, "S2R+ cell number, rep 1": 9.83e5, "S2R+ cell number, rep 2": 1.12e6, "call": "inactive"}
{"target gene": "ath", "reagent no.": 1, "Kc cell number, rep 1": 1.69e6, "Kc cell number, rep 2": 1.75e6, "S2R+ cell number, rep 1": 1.16e6, "S2R+ cell number, rep 2": 1.31e6, "call": "inactive"}
